The values that follow come from PMC3868616.

For assay [1], the target named is T1, β-catenin (human (endogenous in HMVECs)), P35222.
T1 chain: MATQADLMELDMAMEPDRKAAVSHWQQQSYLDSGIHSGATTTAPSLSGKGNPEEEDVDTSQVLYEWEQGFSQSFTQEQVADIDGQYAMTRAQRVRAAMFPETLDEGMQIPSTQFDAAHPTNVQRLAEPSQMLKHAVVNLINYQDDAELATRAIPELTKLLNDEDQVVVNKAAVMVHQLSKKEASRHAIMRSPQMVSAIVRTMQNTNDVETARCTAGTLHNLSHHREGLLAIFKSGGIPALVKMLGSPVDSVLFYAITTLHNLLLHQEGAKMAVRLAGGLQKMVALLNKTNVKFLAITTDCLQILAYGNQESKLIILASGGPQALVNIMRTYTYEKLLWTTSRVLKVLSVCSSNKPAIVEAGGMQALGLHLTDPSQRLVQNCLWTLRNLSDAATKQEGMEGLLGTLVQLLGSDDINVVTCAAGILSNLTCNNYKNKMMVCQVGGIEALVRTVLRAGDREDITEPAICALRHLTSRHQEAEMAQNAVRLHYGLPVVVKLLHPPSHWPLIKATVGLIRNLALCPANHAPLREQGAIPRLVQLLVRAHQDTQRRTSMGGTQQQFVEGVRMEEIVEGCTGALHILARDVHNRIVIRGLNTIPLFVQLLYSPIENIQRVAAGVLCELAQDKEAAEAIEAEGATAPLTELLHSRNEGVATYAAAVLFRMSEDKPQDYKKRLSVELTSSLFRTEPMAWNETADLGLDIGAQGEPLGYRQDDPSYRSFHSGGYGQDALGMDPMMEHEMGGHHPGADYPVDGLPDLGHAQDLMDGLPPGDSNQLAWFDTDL
The experiment in a line: co-IP; endogenous proteins of confluent, serum-starved HMVECs, with or without imatinib (10 μM, 1 h) and VEGF (100 ng/mL, 5 or 15 min); NP-40 lysis buffer (50 mM Tris-HCl pH 8.0, 150 mM NaCl, 1% NP-40); 300 μg pre-cleared lysate with VE-cadherin or β-catenin antibody overnight at 4°C, Protein G Sepharose; Western blot. As to conditions: remark: other sources report otherwise. A general note: Immunoblotting shows a protein as a band on a membrane.

The target of assay [2] is T2, vascular endothelial cadherin (VE-cadherin) (human (endogenous in HMVECs)), P33151.
T2 chain: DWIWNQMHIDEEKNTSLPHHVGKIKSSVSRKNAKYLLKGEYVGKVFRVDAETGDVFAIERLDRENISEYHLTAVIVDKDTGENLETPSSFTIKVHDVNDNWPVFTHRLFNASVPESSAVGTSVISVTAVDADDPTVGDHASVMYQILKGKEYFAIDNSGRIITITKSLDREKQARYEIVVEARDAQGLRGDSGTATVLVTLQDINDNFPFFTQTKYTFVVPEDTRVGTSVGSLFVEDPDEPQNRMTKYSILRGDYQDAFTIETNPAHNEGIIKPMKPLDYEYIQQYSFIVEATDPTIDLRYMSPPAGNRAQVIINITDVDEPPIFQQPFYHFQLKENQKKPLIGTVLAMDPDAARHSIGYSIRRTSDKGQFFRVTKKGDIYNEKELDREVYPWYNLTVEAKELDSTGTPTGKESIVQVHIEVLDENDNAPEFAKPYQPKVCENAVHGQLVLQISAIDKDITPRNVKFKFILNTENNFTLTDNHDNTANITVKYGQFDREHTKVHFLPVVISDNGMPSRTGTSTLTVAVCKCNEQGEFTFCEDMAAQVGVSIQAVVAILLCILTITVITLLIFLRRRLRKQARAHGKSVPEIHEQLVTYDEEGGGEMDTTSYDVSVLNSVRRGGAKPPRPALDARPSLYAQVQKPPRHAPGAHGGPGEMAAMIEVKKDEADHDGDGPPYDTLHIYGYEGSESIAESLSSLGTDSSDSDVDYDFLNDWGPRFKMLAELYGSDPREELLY
Described as above. The note with it: remark: other sources report otherwise.

These are yes or no findings as the source states them, for the method shown. Binding seen in cells or lysates may run through a third protein. Some results given as binding are weak or reduced against the parent protein; the word gives no strength.

B1: vascular endothelial cadherin (VE-cadherin), P33151 48-784 (protein)
chain: T2 chain
For the molecule B1, the binding entry in assay [1] is listed as “binds”.

B2: β-catenin, P35222 1-781 (protein)
chain: T1 chain
For B2, in assay [2], the binding entry was “binds”.
